{"source": "PubChem BioAssay AID1159578 (Peter MacCallum Cancer Centre, 2015)", "test": "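Genome-wide hunt for genes controlling movement of lymphatic endothelial cells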 (primary screen)", "cells": "human lymphatic endothelial cells", "reagents": "siRNA pool against human genes, 40 nM", "timing": "48 h after transfection", "read-out": "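High-content imaging of dye-stained cells in a scratch assay measures filled wound area and nuclei per well; duplicate means given as ratio to mock and robust z-score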", "scale": "migration robust z-score: higher = faster migration into the scratch; nuclei per well: higher = more cells in the well", "hit rule": "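Migration changed when robust z exceeds 2 or falls below -2 and mean nuclei number is at least 3300; otherwise not called changed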", "calls": "active = migration changed; inactive = no migration change, or too few cells", "note": "Shown is an unselected part of about 18,000 reagents. Over the whole deposit, about 1,030 (5.7%) got an active call. 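Inactive calls also include pools with fewer than 3300 nuclei, whose migration was not assessed.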 Raw values vary from plate to plate and are shown uncorrected. Not all columns of the deposit are shown."}
{"gene":"DTL (denticleless E3 ubiquitin protein ligase adapter)","migration robust z-score":-0.56,"nuclei per well, duplicate mean":6444,"call":"inactive"}
{"gene":"FAM228A (family with sequence similarity 228 member A)","migration robust z-score":0.32,"nuclei per well, duplicate mean":5826,"call":"inactive"}
{"gene":"COQ4 (coenzyme Q4)","migration robust z-score":0.41,"nuclei per well, duplicate mean":4960,"call":"inactive"}
{"gene":"SPMAP2 (sperm microtubule associated protein 2)","migration robust z-score":0.34,"nuclei per well, duplicate mean":5348,"call":"inactive"}
{"gene":"PROSER1 (proline and serine rich 1)","migration robust z-score":-0.77,"nuclei per well, duplicate mean":4946,"call":"inactive"}
{"gene":"ACTA2 (actin alpha 2, smooth muscle)","migration robust z-score":0.71,"nuclei per well, duplicate mean":4712,"call":"inactive"}
{"gene":"C4A (complement C4A (Chido/Rodgers blood group))","migration robust z-score":0.9,"nuclei per well, duplicate mean":5402,"call":"inactive"}
{"gene":"PDXK (pyridoxal kinase)","migration robust z-score":-3.42,"nuclei per well, duplicate mean":3408,"call":"active"}
{"gene":"FLT3 (fms related receptor tyrosine kinase 3)","migration robust z-score":-2.52,"nuclei per well, duplicate mean":3382,"call":"active"}
{"gene":"ATP8A1 (ATPase phospholipid transporting 8A1)","migration robust z-score":0.1,"nuclei per well, duplicate mean":7028,"call":"inactive"}
{"gene":"OR56B1 (olfactory receptor family 56 subfamily B member 1)","migration robust z-score":0.15,"nuclei per well, duplicate mean":4920,"call":"inactive"}
{"gene":"CMPK1 (cytidine/uridine monophosphate kinase 1)","migration robust z-score":0.72,"nuclei per well, duplicate mean":6666,"call":"inactive"}
{"gene":"MYO19 (myosin XIX)","migration robust z-score":0.94,"nuclei per well, duplicate mean":5504,"call":"inactive"}
{"gene":"MTFP1 (mitochondrial fission process 1)","migration robust z-score":-0.31,"nuclei per well, duplicate mean":4884,"call":"inactive"}

Laid out differently: 2 of the entries above
CMPK1 (cytidine/uridine monophosphate kinase 1): migration robust z-score = 0.72; nuclei per well, duplicate mean = 6666; call = inactive
MYO19 (myosin XIX): migration robust z-score = 0.94; nuclei per well, duplicate mean = 5504; call = inactive
